# PubChem BioAssay AID1347076 (National Center for Advancing Translational Sciences (NCATS), 2019)
# About 13,000 (3.2%) of roughly 400,000 compounds were called active. The inconclusive results got no clear call from the source; some entries with a clear call stand among them for comparison. The call rests on the fitted dose curve; in most records, active means well fitted cell-killing curve with a large enough effect; inconclusive means small, poorly fitted or top-dose-only effect, or effect the other way; inactive means flat fitted curve, though single readings scatter. Where the call is inconclusive, the potency comes from a doubtful curve fit.
# Test: qHTS assay for MDR1-selective chemotherapeutics: Primary screen using the drug-selected MDR subline cells KB-V1; further: nearly all actives have a fitted effect of over 60% in size
# Details: KB-V1 MDR cells viability, CellTiter-Glo, 72 h; activity change, negative = cytotoxicity: at 46.1 µM (top of the series)
# How it was run: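 Luminescent ATP read-out (CellTiter-Glo, 10 min) measures survival of drug-selected KB-V1 MDR cells after 72 h, 37 degrees C compound exposure. Medium: phenol-red-free DMEM, 10% FBS. Values from fitted concentration-response curves.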
# On the % scale 0 is the no-effect control and ±100 the full control effect; potency means the concentration at half of the fitted maximal effect.
Structure (SMILES),Potency,"activity change, negative = cytotoxicity"
COc1ccc(Nc2nc(N)nc(CN3CCOCC3)n2)cc1,inactive,
CCn1cc(C(=O)N2CCN(c3cccc(C(F)(F)F)c3)CC2)c2cc(OC)c(OC)cc2c1=O,inactive,
CCn1c(C)cc(C(=O)CSc2nnc(C3CC3)n2C2CC2)c1C,inactive,
Cc1ccc(C(=O)N/C(=C\c2ccc(F)cc2)C(=O)NCCN2CCOCC2)cc1,"inconclusive: 3.66 µM [rising, full curve]",
CCCC(=O)N1CCC1(C)C(=O)Nc1ncc(C(=O)OC)s1 (stereo unspecified),inactive,
COc1ccc(C(=O)NC(CCSC)C(=O)NCc2nnc3ccccn23)cc1 (stereo unspecified),inactive,
CCOc1ccc(S(=O)(=O)NCCC(=O)NCCc2ccc(C(C)C)cc2)cc1,"inconclusive: 9.2 µM [cytotoxic, partial curve]",
CC1(c2cccc(Br)c2)NC(=O)N(CC(=O)N2CCc3ccccc32)C1=O (stereo unspecified),"inconclusive: 9.2 µM [rising, partial curve]",
Cn1c(=O)c2c(nc(NCc3ccccc3)n2Cc2ccccc2)n(C)c1=O,inactive,
CCn1c(C)nc2c(C)[n+](CC(=O)c3ccc(Br)cc3)ccc21,"inconclusive: 3.66 µM [rising, full curve, poor fit]",
CCOC(=O)c1c(C)[nH]c(C(=O)COC(=O)CSC)c1C,"inconclusive: 2.31 µM [cytotoxic, full curve]",
O=C(c1cccc(NS(=O)(=O)c2ccc(Br)cc2)c1)N1CCCCC1,"inconclusive: 18.4 µM [cytotoxic, single point]",
CCn1cc(C(=O)OCC(=O)NCc2ccccc2Cl)c(=O)c2ccc(C)nc21,"inconclusive: 23.1 µM [cytotoxic, single point]",
CCN(CC)CCSc1nc2ccccc2n1Cc1ccccc1,inactive,
CC(C)CNC(=O)C1(C)CCCN1Cc1ccc(S(C)(=O)=O)cc1 (stereo unspecified),inactive,
COc1ccc(N2CC(NC(=O)COc3ccccc3)CC2=O)cc1OC (stereo unspecified),"inconclusive: 29.1 µM [cytotoxic, single point]",
CCNc1nc2nc3ccc(C)cn3c(=O)c2cc1C(=O)NCC1CCCO1 (stereo unspecified),,inconclusive: -17.2%
CCc1ccc(-n2nc3cc(C)c(NC(=O)c4cccc5ccccc45)cc3n2)cc1,"inconclusive: 25.9 µM [rising, single point]",
CN(c1ncnc2onc(-c3cccc(Cl)c3)c12)C1CCCCC1,inactive,
CNc1nc(N2CCc3ccccc32)ncc1F,active: 1.64 µM,
O=C(NC1CCN(S(=O)(=O)c2ccc(F)cc2)CC1)c1cccc(F)c1,inactive,
Nc1c(C(=O)NC2CCCC2)c2nc3ccccc3nc2n1/N=C/c1cccnc1,"inconclusive: 29.1 µM [cytotoxic, single point]",
CSCCNC(=O)C1(C)CCN1C(=O)c1sccc1C (stereo unspecified),inactive,

Structure (SMILES),Potency,"activity change, negative = cytotoxicity"
S=C(c1ccc(-c2ccc(Br)cc2)o1)N1CCCCC1,"inconclusive: 20.6 µM [rising, partial curve, poor fit]",
COCCCNC(=O)C[C@H]1C[C@H](C(=O)N2CCOCC2)[C@@]2(C)c3[nH]c4cc(CCC(=O)N(C)C)ccc4c3CCN2C1=O,"inconclusive: 7.31 µM [rising, partial curve, poor fit]",
Cc1cc2n(n1)C(c1cn(-c3ccccc3)nc1C)Nc1c(C)cccc1-2 (stereo unspecified),"inconclusive: 35.5 µM [cytotoxic, single point]",
O=C(O)c1cccc(NC(=O)c2cc(NC(=O)c3ccccc3)cc(NC(=O)c3ccccc3)c2)c1,"inconclusive: 29.1 µM [rising, single point]",
Clc1cccc(CN2CCc3c([nH]c4ccccc34)C2)c1Cl,inactive,
Cc1ccc(-n2cc(C(=O)c3ccccc3O)cn2)cc1,inactive,
O=C(NCc1ccccc1)c1cc(C2COCCN2C(=O)C2CC2)on1 (stereo unspecified),"inconclusive: 18.4 µM [cytotoxic, partial curve, poor fit]",
CCOC(=O)c1cc([N+](=O)[O-])sc1NC(=O)CC,"inconclusive: 16.4 µM [cytotoxic, single point]",
O=C(NC(=S)Nc1cccc2cc(O)ccc12)c1ccccc1Br,"inconclusive: 29.1 µM [cytotoxic, single point]",
CCN=c1scc(-c2ccc3c(c2)NC(=O)CO3)n1N=C1CCCC1,"inconclusive: 8.2 µM [cytotoxic, partial curve]",
CCOC(=O)N1CCN(C(=O)c2ccc3c(=O)n(CCC4=CCCCC4)c(=O)[nH]c3c2)CC1,inactive,
CCOC(=S)SCC(=O)N1CCc2cc(OC)ccc2C1C1C(=O)CCCC1=O (stereo unspecified),"inconclusive: 18.4 µM [cytotoxic, single point]",
O=C1c2ccccc2C(=O)N1CCc1csc(-c2cccc(F)c2)n1,active: 16.4 µM,
Cc1cc(C)nc(N/N=C/c2sccc2C)n1,"inconclusive: 18.4 µM [cytotoxic, partial curve]",
O=C(COc1ccccc1F)NNC(=O)c1ccc(N2CCCCC2)c([N+](=O)[O-])c1,active: 16.4 µM,
COc1ccc(-n2nc3c(c2NC(=O)c2c(-c4ccccc4Cl)noc2C)CS(=O)(=O)C3)cc1,active: 9.2 µM,
COc1cc2sc(-c3ccc(S(C)(=O)=O)cc3)c(C(=O)NCc3ccc(C)o3)c2cc1OC,"inconclusive: 29.1 µM [cytotoxic, partial curve, poor fit]",
Nc1nc(Nc2ccccc2F)sc1C(=O)c1ccc(Cl)cc1,inactive,
CCOC(=O)N1CCC(NC(=O)CN2C(=O)COc3ccc(C(C)(C)C)cc32)CC1,"inconclusive: 5.8 µM [cytotoxic, partial curve, poor fit]",
COc1ccc2[nH]c3c(C)c4cc[n+](C)cc4c(C)c3c2c1,inactive,
CCc1cccc(NC(=O)C2CCN(C(=O)c3cnn(-c4ccccc4)c3-n3cccc3)CC2)c1,"inconclusive: 9.2 µM [cytotoxic, partial curve, poor fit]",
CC1(C)C2CCC1(CS(=O)(=O)NCc1ccc(C(=O)O)cc1)C(=O)C2 (stereo unspecified),"inconclusive: 29.1 µM [rising, partial curve, poor fit]",
COc1ccc(N2CCN(C(=O)CCS(=O)(=O)c3ccc4c(c3)NC(=O)C(C)S4)CC2)cc1 (stereo unspecified),inactive,

# An excerpt from above in order of count of non-hydrogen atoms, smallest number first:
Structure (SMILES),Potency,"activity change, negative = cytotoxicity"
S=C(c1ccc(-c2ccc(Br)cc2)o1)N1CCCCC1,"inconclusive: 20.6 µM [rising, partial curve, poor fit]",
O=C1c2ccccc2C(=O)N1CCc1csc(-c2cccc(F)c2)n1,active: 16.4 µM,
O=C(COc1ccccc1F)NNC(=O)c1ccc(N2CCCCC2)c([N+](=O)[O-])c1,active: 16.4 µM,
